Source: patent US20250034207A1, “PEPTIDES AND PEPTIDE CONJUGATES FOR TREATING MENTAL DISORDERS” (Kyoto University, priority 2016, published 2025)

tested on: ddY mice; test: Tail suspension test in mice after oral administration; assay type: in vivo; details: rank of relative activity versus SEQ ID NO:1, tail suspension data at 0.3 mg/kg
Protocol: The tail suspension test is an experimental method used to screen potential antidepressant drugs (Can et al., 2012, J Vis Exp., 59: e3769). In the test as implemented in the Examples, a test substance is orally administered to mice (ddY mice, males, 24˜30 g) and 30 minutes later the mice are suspended by their tails for six minutes. The amount of time that a mouse is immobile (i.e. is not displaying escape behavior) during the six minutes is measured to provide an immobility time. The administration of anti-depressant drugs such as imipramine reduces immobility time. Therefore, if a reduction of immobility time is observed when testing a test substance, it can be concluded that the test substance has anti-depressant properties. Immobility is considered a despair state, and, therefore, a reduction of immobility time also indicates an increase in motivation (i.e., that the test substance has motivation-increasing properties).

Substance	Rank
LSSTQAQQSW (Designed peptide) [SEQ ID NO:6]	1
LSSTQAQQSYW (Designed peptide) [SEQ ID NO:37]	4
LSSTQ (Designed peptide) [SEQ ID NO:4]	12
LSSTQAQQSF (Designed peptide) [SEQ ID NO:7]	2
LSSTQAQQ (Designed peptide) [SEQ ID NO:27]	11
LSSTQAQQS (Designed peptide) [SEQ ID NO:2]	15
WLSSTQ (Designed peptide) [SEQ ID NO:40]	8
WLSSTQAQQSYW (Designed peptide) [SEQ ID NO:39]	16
STQAQQSY (Designed peptide) [SEQ ID NO:29]	10
WLSSTQAQQSY (Designed peptide) [SEQ ID NO:38]	9
LSSTQAQQSY (Designed peptide) [SEQ ID NO:1]	3
ESFFLSSTQAQQSY (Designed peptide) [SEQ ID NO:42]	19
FFLSSTQAQQSYLQ (Designed peptide) [SEQ ID NO:44]	13
LSSTQAQQSY-NH2 (C-terminal amide; Designed peptide; MOD_RES 10 Carboxyl group of the C-terminus is amidated.) [SEQ ID NO:36, C-terminal amidated peptide conjugate]	5
AQQSY (Designed peptide) [SEQ ID NO:5]	14
SSTQAQQS (Designed peptide) [SEQ ID NO:28]	6
LSSTQAQQSYLQGF (Designed peptide) [SEQ ID NO:43]	18
SSTQAQQSY (Designed peptide) [SEQ ID NO:3]	7
AQQSYW (Designed peptide) [SEQ ID NO:41]	17
